The source of these data is PubChem BioAssay AID2685 (National Center for Advancing Translational Sciences (NCATS), 2010).

One may read the AC50 as the midpoint of the concentration-response curve, whichever way the signal moves. High values mean activity only at high concentration, low ones activity at low concentration.

This is one part of the list. Further columns of the screen follow, without active or inactive calls. Most of these compounds were active or inconclusive in the main read-out, so they are no random draw. The note in brackets gives the kind of curve behind each potency; many fits are weak.

The test can be described thus: qHTS Assay for Lipid Storage Modulators in Drosophila S3 Cells.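 As to cell number change: cells counted by Cell Tracker Red CMTPX staining in the red channel.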 Conditions: BODIPY lipid droplet fluorescence, 18-24 h; for cell number change: measured here: cell count max response, cells fed with added oleic acid. Summed up:
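Drosophila S3 cells got compounds at several concentrations plus oleic acid (400 uM solution). Laser-scanning cytometry with 488 nm excitation read lipid droplets at 500-530 nm and cells at 575-640 nm. Percent activity was relative to 20 uM Triacsin C.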
(Quantitative high-throughput screening tests each substance at several concentrations.)

The mark [1] stands for this setting: measured here: lipid fluorescence (Fed channel) AC50, cells fed with added oleic acid.
[2] abbreviates: measured here: cell number channel AC50, cells fed with added oleic acid.

As for `Cn1c(SCc2cccnc2)nc2c(c1=O)SCC2`, the cell number change is -4%.

For `COc1ccc(N(C(=O)c2ccc(F)cc2)C2=CC3CCC(C2)N3C)cc1` (stereo unspecified), the cell number change was -11.2%. The AC50 under setting [1] was 8.2 µM [falling, partial curve].

`Cc1ccc(/C=C/C(=O)NCc2cccs2)cc1`: the cell number change was 35.8%. The AC50 under setting [2] is 10.3 µM [rising, partial curve, poor fit].

In the case of `Nc1nc(SCc2nc(-c3ccccc3)no2)[nH]c(=O)c1-c1ccccc1`, the cell number change was found to be 135%. In addition, under setting [2], the AC50 was 29.1 µM [rising, single point]. In addition, under setting [1], the AC50 was 3.26 µM [rising, full curve].

Take `CCOc1ccc(C(=O)NNC(=O)CCNC(=O)c2ccco2)cc1OC`: the cell number change was 19%.

Take `COCCCNCCOc1ccccc1-c1ccccc1`: the cell number change was found to be 1.95%. For the same compound, the AC50 under setting [1] is 2.91 µM [falling, single point].

`CCOc1ccc(C(=S)N2CCN(C)CC2)cc1`: the cell number change is -1.13%. The AC50 under setting [2] was 0.146 µM [falling, full curve].

As for `CCCCC[C@H]1CN(CCCC)C(=O)[C@@H]1CC(=O)NCc1ccc(OC)cc1`, the cell number change is -3.89%. Moreover, the AC50 under setting [1] was 13 µM [falling, partial curve].

`COc1ccc(CCNC(=O)CCCNC(=O)Cn2cnc3sc(C)c(C)c3c2=O)cc1OC`: the cell number change is -23.9%. Also, the AC50 under setting [1] is 0.731 µM [falling, full curve, poor fit].

For `CC(=O)Nc1ccc(NC(=O)C(C)OC(=O)c2c(C)nn(-c3ccccc3)c2Cl)cc1` (stereo unspecified), the cell number change was -2.68%.

As for `CCC/C(=N\NC(=O)Cc1csc(N2CCOCC2)n1)c1ccccc1`, the cell number change stood at 60.1%. In addition, under setting [1], the AC50 is 0.00461 µM [falling, full curve, poor fit].

For `Cc1cc(C)n(C(=O)c2cccc([N+](=O)[O-])c2C)n1`, the cell number change was -1.05%.

Take `CSc1ccc2c(c1)N(CCC1CCCCN1C)c1ccccc1S2` (stereo unspecified): the cell number change was -36.1%. Besides, the AC50 under setting [2] is 0.00651 µM [falling, full curve, poor fit]. For the same compound, the AC50 under setting [1] was 9.2 µM [falling, partial curve].

Consider `COc1ccc(-n2nc(C#N)c(Cl)cc2=O)cc1`, for which the cell number change is -59.8%. Besides, the half-maximal activity concentration (AC50) under setting [2] is 29.1 µM [falling, single point]. The AC50 under setting [1] is 29.1 µM [falling, single point].

In the case of `O=C(NCc1cccc(Cl)c1)C1CCN(c2nnc(N3CCCC3=O)s2)CC1`, the cell number change stood at 24.5%. Also, under setting [1], the AC50 was 0.651 µM [rising, full curve, poor fit].

For the compound `COC(=O)c1ccc(OCC(O)CNC2CCCC2)cc1` (stereo unspecified), the cell number change came out at 13.6%. Further, under setting [1], the AC50 was 29.1 µM [rising, single point].

Regarding `COc1ccc(-c2nc(CN3CCC(C(=O)N4CCOCC4)CC3)c(C)o2)c(OC)c1`, the cell number change was -13.3%.

In the case of `COc1ccc(N(C)S(=O)(=O)c2cccc(C(=O)Nc3ccc(N4CCOCC4)cc3)c2)cc1`, the cell number change is -27.3%. Besides, the AC50 under setting [1] was 3.66 µM [falling, full curve, poor fit].

Take `CCCN(CC(=O)Nc1ccc(Cl)cc1Cl)C(=O)/C=C/c1cccc([N+](=O)[O-])c1`: the cell number change was found to be 6.97%. Further, the AC50 under setting [1] is 8.2 µM [rising, partial curve].

With `Oc1ccc(N=Nc2ccc(Br)cc2)c(O)c1`, the cell number change was -40.8%. Further, the AC50 under setting [1] was 20.6 µM [falling, partial curve].

Take `O=C(/C(=N/O)n1cncn1)c1ccccc1Cl`: the cell number change was -39.6%. In addition, the AC50 under setting [2] is 1.03 µM [falling, full curve].

For `O=C(O)c1ccccc1C(=O)N1CCc2c([nH]c3ccccc23)C1C(F)(F)F` (stereo unspecified), the cell number change is -28.9%. In addition, the AC50 under setting [1] is 29.1 µM [falling, single point].

`CCOC(=O)c1c(NC(C)=O)sc2c1CCN(Cc1ccccc1)C2`: the cell number change is -12.7%. Further, the AC50 under setting [1] is 23.1 µM [falling, single point].

For the compound `CCOC(=O)N1CCN(Cc2nc3cc(NC(=O)c4ccco4)ccc3n2C)CC1`, the cell number change amounted to 18.4%.

Turning to `CN(CC(=O)Nc1ccc(Cl)cc1F)C1CCS(=O)(=O)C1` (stereo unspecified), the cell number change is -6.13%. Besides, the AC50 under setting [1] was 0.13 µM [rising, partial curve, poor fit].

Turning to `Cn1nc(C(=O)N2CCN(c3ccc(Cl)cc3)CC2)c2c1-c1ccccc1S(=O)(=O)C2`, under setting [1], the AC50 was 29.1 µM [rising, single point].

On to `O=C(CSc1nnc(-c2cccc(F)c2)o1)N1CCOCC1`, for which the cell number change is -16.1%. For the same compound, the AC50 under setting [1] was 0.58 µM [falling, single point].

`CCC(CC)C(=O)Oc1c(Sc2ccccc2[N+](=O)[O-])c(C)nn1C(C)(C)C`: the cell number change is -24.7%. Besides, the AC50 under setting [1] is 20.6 µM [falling, single point].

For the compound `CS(=O)(=O)NCCCNc1ccc(Cl)cc1[N+](=O)[O-]`, the cell number change came to 1.98%. In addition, under setting [1], the AC50 is 29.1 µM [rising, single point].

Turning to `CC(C)(C)NC(=O)CN(Cc1ccc2c(c1)OCO2)C(=O)CCC(=O)Nc1nccs1`, the cell number change was determined as 20.2%. Besides, the AC50 under setting [1] was 32.6 µM [rising, single point].

On to `O=C1c2ccccc2C(=O)N1CCCC(=O)N1CCc2ccccc21`, for which the cell number change turned out to be 66.4%. In addition, the AC50 under setting [2] is 0.82 µM [rising, full curve].

`O=C(O)c1ccc(-c2ccccn2)s1`: the cell number change is -31.4%. Moreover, under setting [2], the AC50 was 16.4 µM [falling, single point]. Under setting [1], the AC50 is 16.4 µM [falling, single point].

In the case of `Cc1ccc2[nH]cc(S(=O)(=O)c3ccc(C)c(C)c3)c(=O)c2c1`, under setting [1], the AC50 is 29.1 µM [rising, single point].

Take `O=C(NNc1cccc(Cl)n1)Nc1cccc(Cl)c1`: the cell number change was 26.5%. In addition, under setting [2], the AC50 is 0.411 µM [rising, full curve, poor fit]. In addition, under setting [1], the AC50 was 1.16 µM [rising, full curve].

`COC(=O)c1ccc(Oc2nc(NC(C)C)nc(SC)n2)cc1`: the cell number change was -14.3%.

As to `c1ccc2c(Nc3nnc(-c4ccncc4)s3)cccc2c1`, the cell number change is -12.4%.

`CCOc1ccccc1NC(C)C(=O)Nc1cc(C(F)(F)F)ccc1N1CCOCC1` (stereo unspecified): the cell number change worked out at 5.12%. Under setting [1], the AC50 is 0.0326 µM [rising, full curve].

In the case of `CCOc1ccc(NC(=O)CN(C)C(=O)/C=C/c2ccco2)cc1OCC`, the cell number change is -11.7%.

As to `CCOc1ccc(S(=O)(=O)NCCC(=O)NCC(c2ccc(OC)cc2)N2CCCCC2)cc1` (stereo unspecified), the cell number change is -25%. The AC50 under setting [1] is 1.16 µM [falling, full curve, poor fit].

For the compound `Cc1c(C(=O)N2CCN(Cc3ccc4c(c3)OCO4)CC2)sc2ncnc(N3CCN(c4ccccc4)CC3)c12`, the cell number change was 13.1%. Further, under setting [1], the AC50 was 18.4 µM [rising, single point].

Regarding `COC(=O)c1ccc(C2C(C(=O)c3ccc(C)o3)=C(O)C(=O)N2c2cc(C)on2)cc1` (stereo unspecified), the cell number change stood at 4.01%. Moreover, the AC50 under setting [1] is 23.1 µM [rising, partial curve].
